In article PMC3808384:
These are yes or no findings as the source states them, for the method shown. Binding seen in cells or lysates may run through a third protein. Some binding calls cover weakened binding; strength is not graded here.

Experiments:
[1] = target: HA tagged hERG1a N861I (human) (UniProt Q12809); experiment: co-IP; HA tagged hERG1a mutants transfected into stable hERG1a-FLAG HEK293 cells; lysate in TBS + 1% NP40; precipitated with HA.11 anti-HA antibody and protein G Sepharose at 4°C; blot probed with anti-HA and anti-FLAG
[2] = target: HA tagged hERG1a N861H (human) (UniProt Q12809); experiment: as above

hERG1a-FLAG (wild-type Kv11.1 channel subunit) (from UniProt Q12809 1-1159)
binding [1]: binds | binding [2]: binds
